Assay results taken from publication PMC9037475.

Chains of the proteins cited; added tags and fusions are not shown.
UniProt P01106: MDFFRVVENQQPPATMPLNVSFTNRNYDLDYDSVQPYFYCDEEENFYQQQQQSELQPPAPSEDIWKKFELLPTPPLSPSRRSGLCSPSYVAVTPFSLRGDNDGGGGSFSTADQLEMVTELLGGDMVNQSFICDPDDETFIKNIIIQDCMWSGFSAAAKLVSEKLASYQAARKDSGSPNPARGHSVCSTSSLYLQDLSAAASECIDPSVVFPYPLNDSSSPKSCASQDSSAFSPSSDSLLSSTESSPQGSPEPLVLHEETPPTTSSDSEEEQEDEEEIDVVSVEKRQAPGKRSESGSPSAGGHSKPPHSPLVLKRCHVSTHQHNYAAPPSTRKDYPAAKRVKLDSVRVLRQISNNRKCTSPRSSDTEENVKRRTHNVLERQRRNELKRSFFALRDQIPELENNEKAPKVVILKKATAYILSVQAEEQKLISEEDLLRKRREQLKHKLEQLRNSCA

Molecular target: T1, Flag-tagged Fbxl8 (wildtype), expressed in 293 T cells (UniProt Q96CD0)
T1 sequence: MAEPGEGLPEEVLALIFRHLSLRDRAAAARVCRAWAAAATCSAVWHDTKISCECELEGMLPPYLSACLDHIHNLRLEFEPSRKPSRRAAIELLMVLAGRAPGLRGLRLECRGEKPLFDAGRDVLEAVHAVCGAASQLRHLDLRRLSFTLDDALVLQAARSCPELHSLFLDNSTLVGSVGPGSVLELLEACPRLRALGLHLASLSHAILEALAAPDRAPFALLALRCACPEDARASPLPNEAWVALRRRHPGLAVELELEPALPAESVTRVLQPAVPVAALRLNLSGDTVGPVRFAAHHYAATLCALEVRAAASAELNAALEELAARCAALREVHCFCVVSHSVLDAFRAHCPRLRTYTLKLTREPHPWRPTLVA
Experiment: affinity purification with mass spectrometry; Flag-Fbxl8 expressed in 293 T cells; Tween 20 lysis buffer; complexes purified on FLAG M2 agarose, SDS-PAGE, silver stain, gel pieces to mass spectrometry

Substance: c-myc coprecipitating from 293 T cells (from UniProt P01106 1-454)
- binding: binds

These are yes or no findings as the source states them, for the method shown. Binding seen in cells or lysates may run through a third protein. Here binding means that the protein was enriched with, or labelled near, the bait; the list need not be complete. Sequences can lack the tags named with a protein.
